Measurements reported in the supplement of paper PMC5949888.
Most values lie at the floor of the assay. Slopes are relative: functional sequences can read slightly below zero.

The substances below were run on Saccharomyces cerevisiae PS128 hsf1 delta, HSF1(1-493) fusion (assay: growth estimate (transactivation domain function in HSF1 fusion, heat-shock survival) (a.u. (slope of normalised read count over time)); higher = stronger growth at 37°C, i.e. more transactivation activity). Settings: library: random library.
Experimental: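 Random 60-nt DNA library encoding peptides of up to 20 aa, fused to the C-terminus of yeast HSF1 residues 1-493 (C-terminal TAD deleted) and expressed from the native HSF1 promoter on a CEN plasmid in hsf1-deleted S. cerevisiae PS128. Cells were selected at 37°C on -trp 5-FOA plates for 0, 2, 4, 6 and 8 days and amplicons were sequenced. Growth estimate is the slope of a robust linear fit of total-sum-normalised read counts (normalised to the first time point) over time, using at least 2 replicates. Sequences are classed functional (TAD activity) above a threshold of -0.13, set from stop-codon control sequences.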
GHKQYYIGFANIIPHGKEKA gave a growth estimate of under -0.25. With RAEYRDWRGNCGTQPDLRPT the growth estimate was under -0.25. For VALTGPLNSSVSTAASRAAA, the growth estimate was under -0.25. With LPTFRW the growth estimate was under -0.25. RSFGYFGCLDLWYLRGQTGS showed a growth estimate of under -0.25. With VDRKAGPLHMTIYDLLAPGA the growth estimate was under -0.25. TAGVKLKPDVPDQGDGRRSG gave a growth estimate of under -0.25. Substance AGQDLTRG has a growth estimate of under -0.25. GGAGQSRPGRVGV was tested, and the growth estimate was under -0.25. Substance RKLI has a growth estimate of under -0.25. YPG showed a growth estimate of under -0.25. With AAS the growth estimate was under -0.25. Substance RYAYGVQPTGPRLPRDARSH has a growth estimate of -0.245. With PHSPLGMSPFFVSVPLVTCE the growth estimate was under -0.25. Work on QGVVLFILGTHGQRLH yielded a growth estimate of under -0.25. In the case of LGPGAARTERGVFKMAIGV, the growth estimate is reported as under -0.25. With HGERKVVLFMCSAVRRPGGC the growth estimate was under -0.25. SIDRPRITH was tested, and the growth estimate was under -0.25. Work on QSRIRLVFGLDSAV yielded a growth estimate of under -0.25. With GHSPLLH the growth estimate was under -0.25. For VSQHPYGRRSSQLLGTWCAF, the growth estimate was under -0.25. Substance STQIRSESLSFVCLDIGLVV has a growth estimate of under -0.25. LGKRVIGMCELFARVSTCGH was tested, and the growth estimate was -0.246. For SDPERN, the growth estimate was under -0.25. GRISPSYQSLTLKT showed a growth estimate of under -0.25. KIERSI was tested, and the growth estimate was under -0.25. MISRQFV showed a growth estimate of under -0.25. With QLSSPAPGNHSCARNSSGLQ the growth estimate was under -0.25. TLPQKRFRSAAGSTRENFAL was tested, and the growth estimate was under -0.25. QCSRFKSVVL was tested, and the growth estimate was -0.249. Substance NVRYPLARLTLEKCCSRGAR has a growth estimate of under -0.25. CMHWLYCLSKPRLRFLGFRV gave a growth estimate of under -0.25. KTWVRTVDSMNY gave a growth estimate of under -0.25. Substance AAGNI has a growth estimate of under -0.25. Substance PDGRLHVPDDRV has a growth estimate of under -0.25. ADKP gave a growth estimate of under -0.25. IRLRRMVGSFC was tested, and the growth estimate was under -0.25. Substance SDTTGM has a growth estimate of under -0.25. Work on ALARQRSRLEQGILEEHTYN yielded a growth estimate of under -0.25. In the case of HSTE, the growth estimate is reported as under -0.25. Work on SGLKRFS yielded a growth estimate of under -0.25. RPRKCFTGWSGLHEKGNSRR gave a growth estimate of under -0.25. VKSWGFSVGITSYGEAPCVR showed a growth estimate of under -0.25. Work on AINFARKGLRPVYD yielded a growth estimate of under -0.25. VPTEFILSALPPLKCSTTSN showed a growth estimate of -0.231. For MIAAEAGGHMGETPRRPSHY, the growth estimate was under -0.25. In the case of FAVKISMQIDYKGMPSPESC, the growth estimate is reported as under -0.25. Work on NTRTAHRGWRHQQGGVVCRP yielded a growth estimate of under -0.25. For DPHLTQWLETLNSKLKVICK, the growth estimate was under -0.25. For QPFGWTLDPEETSCCLHVRG, the growth estimate was under -0.25. With YCTNIVIVQGSRRVALSLLL the growth estimate was under -0.25. LGTRRINRSRRTLSAPSDES gave a growth estimate of under -0.25. RALRHKTLAST gave a growth estimate of under -0.25. For RFDAWISVVKS, the growth estimate was under -0.25. GPSSTPPAEARVMTH gave a growth estimate of under -0.25. With VWTWSNRQGLGRD the growth estimate was under -0.25. Work on SGDRITGGSPSRLLRVRPGL yielded a growth estimate of under -0.25. With HTSRRLAIYALGGSLGALSL the growth estimate was under -0.25. SSNHQ showed a growth estimate of under -0.25. For LDTCRTTSESGTWTLVP, the growth estimate was under -0.25. RVGCR showed a growth estimate of under -0.25. TDDLSGVHLWTMQRDRIVRA gave a growth estimate of under -0.25. VFIIRLRFHDSQQTCYFSSL gave a growth estimate of under -0.25. VPYQPDPSRGLLTRTLCVFY gave a growth estimate of -0.205. VDTTV gave a growth estimate of under -0.25. Work on GVSRVRSGKRAAVTARYVCH yielded a growth estimate of under -0.25. Substance GFPQLGTFGRAPEVVSPRRD has a growth estimate of under -0.25. For ASPRTRQND, the growth estimate was under -0.25. For APNIASWPCDTISSLYLGPS, the growth estimate was under -0.25. SLRLVVGVRRARAEWVG was tested, and the growth estimate was under -0.25. MYRGSDDKGPRELFACQGCD showed a growth estimate of -0.248. For KKN, the growth estimate was under -0.25. For HKDCYTEAVSLGHGFRASSA, the growth estimate was under -0.25. TFHEYARSC gave a growth estimate of under -0.25. LKKQAVGASLRNG was tested, and the growth estimate was under -0.25. SILGYSPM showed a growth estimate of -0.239. Substance LREPFPTILGAAAWYQYVSG has a growth estimate of under -0.25. Substance KYRRWCPLFSLLTDNLN has a growth estimate of under -0.25. GVYEEGEGSCSSV gave a growth estimate of -0.203. With TRMATSSPIVLRAPNIIGNA the growth estimate was under -0.25.
